Series [1] in a line: Copper-64 radiolabelling (radiochemical incorporation by radio-UHPLC/radio-TLC). The settings on record: for fold lower molar activity required for quantitative incorporation: versus NODAGA-RGD (10 MBq/nmol); for labelling efficiency: 1 MBq/nmol. The method, then:
Ligand stock solutions were prepared in ultrapure water at 10^−3 M and were kept in the freezer when not used. Serial dilutions were performed to obtain solutions with ligand concentrations ranging from 1.0⋅10^−4 M to 1.0⋅10^−7 M in ultrapure water. Diluted solutions were freshly prepared from stock solutions before each experiment.
Radiolabelling were performed by adding [^64Cu]CuCl2 diluted in 0.05 M HCl (~2.5 MBq, 2 μL) to an aliquot of ligand solution (20 μL) mixed with 0.05 M HCl + 0.5 M sodium acetate 5:1 v/v ratio (98 μL and 20 μL, respectively). The final pH was equal to 4.5. In the experiments performed at pH 7, 1.0 M sodium phosphate buffer (100 μL) was used instead of sodium acetate buffer. The reaction mixtures were allowed to react for 10 min at RT or heated to 90 °C. Different ligand concentrations were screened, which correspond to the following molar activities: 2 × 10^−3 M (0.01 MBq/nmol), 2·10^−4 M (0.1 MBq/nmol), 2 × 10^−5 M (1 MBq/nmol), 8 × 10^−6 M (2.5 MBq/nmol), 4·× 10^−6 M (5 MBq/nmol), 2·× 10^−6 M (10 MBq/nmol), 8·× 10^−7 M (25 MBq/nmol), 4·× 10^−7 M (50 MBq/nmol), 2·× 10^−7 M (100 MBq/nmol), 8·× 10^−8 M (250 MBq/nmol) and 4·× 10^−8 M (500 MBq/nmol). All measurements were performed in triplicates.
The reaction progress was monitored by radio-ultra-high-performance liquid chromatography (UHPLC) or radio-thin layer chromatography (TLC). UHPLC was performed using an Acquity system (Waters, Italy) equipped with a reversed-phase C18 column (1.7 μm, 2.1 mm × 150 mm), an Acquity TUV detector (Waters, Milan, Italy) and a Herm LB 500 radiochemical detector (Berthold Technologies, Milan, Italy). 0.1% Trifluoroacetic acid in water (A) and acetonitrile (B) composed the mobile phase. The elution gradient included three stages. A was kept constant to 5% for 2 min; then a 5-min gradient, from 5 to 25% of A, was used; finally, the initial condition was restored in 2 min. A flow rate of 0.35 mL/min was employed. The [^64Cu]Cu^2+ complexes were retained at characteristic retention time (tR) equal to: ~6.9 min for [^64Cu][Cu(DO4S)]^2+, ~5.8 min for [^64Cu][Cu(DO3S)]^2+, ~6.8 min for [^64Cu][Cu(DO3SAm)]^2+, ~4.0 min for [^64Cu][Cu(DO2A2S)], ~6.8 min for [^64Cu][Cu(TRI4S)]^2+ and ~6.7 min for [^64Cu][Cu(TE4S)]^2+. Free [^64Cu]Cu^2+ eluted at tR~1 min.
TLC silica gel 60 F254 plates, developed using a mixture of 10% ammonium acetate and methanol (1:1 v/v ratio, pH 5.5), were used as stationary phase with DO2A2S, DOTA and NODAGA-RDG [47]. Under these conditions, the free [^64Cu]Cu^2+ remains at the baseline (retention factor, Rf = 0) while the [^64Cu]Cu^2+ complexes migrate with the liquid phase (Rf~0.6 for [^64Cu]Cu-NODAGA-RDG and Rf~0.4 for [^64Cu][Cu(DO2A2S)]). Silica gel 60 RP-18 F254S plates were employed as stationary phase and sodium citrate (1 M, pH 4) as eluent with DO4S, TRI4S and TE4S. Under these conditions, the unbound [^64Cu]Cu^2+ migrates with the solvent front (Rf = 1) while the [^64Cu]Cu^2+ complexes remain at the baseline (Rf = 0).
TLC plates were analyzed using a Cyclone Plus Storage Phosphor System (Perkin Elmer) after exposure to a super-resolution phosphor screen (Type MS, Perkin Elmer, Waltham, MA, USA). All the data were processed with OptiQuant software (version 5.0, Perkin Elmer Inc., Waltham, MA, USA).

Series [2] is described as follows: Metal competition assay (2:1 metal-to-ligand excess of Zn^2+ or Ni^2+). The conditions noted are these: 0.5 MBq/nmol, pH 4.5, RT, 10 min; for Labelling efficiency in the presence of Ni^2+: 2-fold molar excess of Ni^2+ with respect to the chelator; for Labelling efficiency in the presence of Zn^2+: 2-fold molar excess of Zn^2+ with respect to the chelator. How it is done:
Competitions studies with DOTA were performed by labelling [^64Cu]Cu^2+ with chelators (0.5 MBq/nmol, pH 4.5 or pH 7, RT, 10 min) in the presence of a 1:1 DOTA-to-ligand ratio. Metal competition studies were performed by adding the ligand (0.5 MBq/nmol, pH 4.5, RT, 10 min) in a mixture containing [^64Cu]Cu^2+ and a 2:1 metal-to-ligand excess of Ni^2+ or Zn^2+. Competition assays among the chelators were carried out by mixing a solution containing equimolar amounts of chelators with [^64Cu]Cu^2+ (0.5 MBq/nmol, pH 4.5, RT). The reaction mixtures were analyzed by UHPLC, using the method described above.

[3] abbreviates: 10 MBq/nmol, RT, pH 4.5, 10 min.
Where [4] appears, read: molar activities >25 MBq/nmol, RT, pH 4.5, 10 min.

In the case of `CSCCN1CCCN(CCSC)CCN(CCSC)CCCN(CCSC)CC1` [TE4S, 1,4,8,11-tetrakis[2-(methylsulfanyl)ethyl]-1,4,8,11-tetrazacyclotetradecane], the “[^64Cu]Cu^2+ incorporation” value in series [1] (25 MBq/nmol, 70 °C, pH 7, with labelling by-products) is 74%; in series [1] (highest considered chelator concentration, RT, pH 7, 10 min) it was ~ 40%. Further, in series [1] (25 MBq/nmol, RT, pH 7, 10 min), the “[^64Cu]Cu^2+ incorporation (labelling efficiency)” value came to 24%.
`CSCCN1CCCN(CCSC)CCN(CCSC)CCN(CCSC)CC1` [TRI4S, 1,4,7,10-tetrakis[2-(methylsulfanyl)ethyl]-1,4,7,10-tetrazacyclotridecane]: the “[^64Cu]Cu^2+ incorporation (labelling efficiency)” value in series [1] (25 MBq/nmol, RT, pH 7, 10 min) was ~ 75%. The “[^64Cu]Cu^2+ incorporation” value in series [1] (500 MBq/nmol, RT, pH 7, 10 min) was 0%. Also, the “molar activity up to which [^64Cu]Cu^2+ is quantitatively incorporated” value (shortened to “molar activity up to which”) in series [1] (RT, pH 7, 10 min) is listed as 10 MBq/nmol.
Regarding `CSCCN1CCN(CCSC)CCN(CCSC)CCN(CCSC)CC1` [DO4S, 1,4,7,10-Tetrakis[2-(methylsulfanyl)ethyl]-1,4,7,10-tetraazacyclododecane], the “[^64Cu]Cu^2+ incorporation” value is 40% in series [1] (setting [3]) and “no radiometal incorporation” in series [1] (setting [4]). The “[^64Cu]Cu^2+ incorporation (labelling efficiency)” value in series [1] (25 MBq/nmol, RT, pH 7, 10 min) stood at 86 ± 14%. Besides, the “molar activity up to which” value is 10 MBq/nmol in series [1] (90 °C, pH 4.5, 10 min) and 10 MBq/nmol in series [1] (RT, pH 7, 10 min). The “fold lower molar activity required for quantitative incorporation” value in series [1] (RT, pH 4.5, 10 min) stood at 10 fold.
Take `CSCCN1CCN(CCSC)CCN(CCSC)CCN(CCSC)CC1.[64Cu+2]` [[^64Cu][Cu(DO4S)]^2+]: in series [2], the “Labelling efficiency in the presence of Ni^2+” value (from here on “Labelling efficiency … of Ni^2+”) amounted to 100 ± 2% and the “Labelling efficiency in the presence of Zn^2+” value (from here on “Labelling efficiency … of Zn^2+”) is on record as 100 ± 1%.
With `CSCCN1CCN(CC(=O)[O-])CCN(CCSC)CCN(CC(=O)[O-])CC1.[64Cu+2]` [[^64Cu][Cu(DO2A2S)]], in series [2], the “Labelling efficiency … of Ni^2+” value stood at 73 ± 3% and the “Labelling efficiency … of Zn^2+” value was found to be 64 ± 5%.
For `CNC(=O)CN1CCN(CCSC)CCN(CCSC)CCN(CCSC)CC1.[64Cu+2]` [[^64Cu][Cu(DO3SAm)]^2+], in series [2], the “Labelling efficiency … of Ni^2+” value is 99 ± 2% and the “Labelling efficiency … of Zn^2+” value turned out to be 90 ± 2%.
“1,4,7-tris[2-(methylsulfanyl)ethyl]-10-acetamido-1,4,7,10-tetraazacyclododecane [DO3SAm]” displayed a labelling efficiency in series [1] (RT, pH 7) of more than 90%. For the same compound, in series [1] (90 °C, pH 4.5, 10 min), the “molar activity up to which” value stood at 2 MBq/nmol. In series [1] (highest ligand concentration 2 × 10^−3 M (0.01 MBq/nmol), RT, pH 4.5), the “[^64Cu]Cu^2+ complexation” value was “not able to complex”.
In series [1] (RT, pH 7), `CSCCN1CCNCCN(CCSC)CCN(CCSC)CC1` [DO3S, 1,4,7-tris[2-(methylsulfanyl)ethyl]-1,4,7,10-tetraazacyclododecane] registered a labelling efficiency of more than 90%. The results for the “[^64Cu]Cu^2+ incorporation” value in series [1] (setting [3]) and in series [1] (setting [4]) were 20% and “no radiometal incorporation”, respectively. The “molar activity up to which” value in series [1] (90 °C, pH 4.5, 10 min) is listed as 2 MBq/nmol. Moreover, the “fold lower molar activity required for quantitative incorporation” value in series [1] (RT, pH 4.5, 10 min) amounted to 1000 fold.
As to `CSCCN1CCN(CC(=O)O)CCN(CCSC)CCN(CC(=O)O)CC1` [DO2A2S, 1,7-bis[2-(methylsulfanyl)ethyl]-4,10,diacetic acid-1,4,7,10-tetraazacyclododecane], the “[^64Cu]Cu^2+ incorporation” value in series [1] (setting [3]) is listed as ~ 82%; in series [1] (25 MBq/nmol, RT, pH 4.5, 10 min), ~ 58%; in series [1] (100 MBq/nmol, RT, pH 7, 10 min), 52 ± 8%; in series [1] (500 MBq/nmol, RT, pH 7, 10 min), 9 ± 2%; in series [1] (molar activity >100 MBq/nmol, RT, pH 4.5, 10 min), “below 10%”. For the same compound, the “molar activity up to which” value amounted to 50 MBq/nmol in series [1] (90 °C, pH 4.5, 10 min); 5 MBq/nmol in series [1] (RT, pH 4.5, 10 min); 50 MBq/nmol in series [1] (RT, pH 7, 10 min).
`CSCCN1CCCN(CCSC)CCN(CCSC)CCN(CCSC)CC1.[64Cu+2]` [[^64Cu][Cu(TRI4S)]^2+]: in series [2], the “Labelling efficiency … of Ni^2+” value amounted to 100 ± 1% and the “Labelling efficiency … of Zn^2+” value worked out at 100 ± 1%.
On to `CSCCN1CCNCCN(CCSC)CCN(CCSC)CC1.[64Cu+2]` [[^64Cu][Cu(DO3S)]^2+], for which, in series [2], the “Labelling efficiency … of Ni^2+” value is 91 ± 2% and the “Labelling efficiency … of Zn^2+” value is 95 ± 2%.

These data come from paper PMC9268100, “Chelation of Theranostic Copper Radioisotopes with S-Rich Macrocycles: From Radiolabelling of Copper-64 to In Vivo Investigation” (Molecules, 2022).
